No constants are given. Whether binding was seen depends on the method and setting. Binding seen in cells or lysates may run through a third protein. Some results given as binding are weak or reduced against the parent protein; the word gives no strength.
Tests used:
His-MICALL2 (human) = His-MICALL2 (human) (UniProt Q8IY33); assay: co-IP; HEK293 cells expressing His-MICALL2 and Flag-TRIM21 or their truncation mutants; immunoprecipitation with α-Flag or His antibody; Western blot
[1] = target: Molecule interacting with CasL-like protein 2 (MICALL2), endogenous (human (endogenous in HCT8)) (UniProt Q8IY33); assay: co-IP; endogenous proteins in HCT8 cell lysates; antibodies overnight at 4 °C, Protein A/G-Agarose; Western blot

The chains behind the UniProt entries cited, without tags or fusion partners.
UniProt Q8IY33: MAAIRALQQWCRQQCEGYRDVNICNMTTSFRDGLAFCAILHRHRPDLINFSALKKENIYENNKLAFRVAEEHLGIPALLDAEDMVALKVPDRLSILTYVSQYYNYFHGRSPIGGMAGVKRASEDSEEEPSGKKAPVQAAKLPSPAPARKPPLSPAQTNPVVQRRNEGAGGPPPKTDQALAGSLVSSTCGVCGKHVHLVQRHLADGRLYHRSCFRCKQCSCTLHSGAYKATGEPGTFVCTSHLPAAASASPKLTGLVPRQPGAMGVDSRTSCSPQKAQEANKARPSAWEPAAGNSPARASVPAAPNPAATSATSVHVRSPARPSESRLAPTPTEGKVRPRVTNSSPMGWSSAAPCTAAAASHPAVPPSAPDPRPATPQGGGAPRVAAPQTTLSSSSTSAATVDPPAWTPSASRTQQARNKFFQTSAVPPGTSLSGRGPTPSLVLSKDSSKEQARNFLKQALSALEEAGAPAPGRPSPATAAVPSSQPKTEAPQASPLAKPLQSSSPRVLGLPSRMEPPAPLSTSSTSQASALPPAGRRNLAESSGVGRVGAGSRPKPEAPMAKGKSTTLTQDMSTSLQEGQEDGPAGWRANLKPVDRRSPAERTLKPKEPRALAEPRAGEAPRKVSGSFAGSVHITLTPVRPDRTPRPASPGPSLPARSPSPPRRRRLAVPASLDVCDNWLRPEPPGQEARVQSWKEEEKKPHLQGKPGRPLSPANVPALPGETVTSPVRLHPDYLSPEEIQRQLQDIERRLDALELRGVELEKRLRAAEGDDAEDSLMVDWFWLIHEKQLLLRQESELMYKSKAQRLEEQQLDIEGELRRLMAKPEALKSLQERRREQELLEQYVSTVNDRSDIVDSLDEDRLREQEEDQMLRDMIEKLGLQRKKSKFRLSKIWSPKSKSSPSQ
UniProt P19474: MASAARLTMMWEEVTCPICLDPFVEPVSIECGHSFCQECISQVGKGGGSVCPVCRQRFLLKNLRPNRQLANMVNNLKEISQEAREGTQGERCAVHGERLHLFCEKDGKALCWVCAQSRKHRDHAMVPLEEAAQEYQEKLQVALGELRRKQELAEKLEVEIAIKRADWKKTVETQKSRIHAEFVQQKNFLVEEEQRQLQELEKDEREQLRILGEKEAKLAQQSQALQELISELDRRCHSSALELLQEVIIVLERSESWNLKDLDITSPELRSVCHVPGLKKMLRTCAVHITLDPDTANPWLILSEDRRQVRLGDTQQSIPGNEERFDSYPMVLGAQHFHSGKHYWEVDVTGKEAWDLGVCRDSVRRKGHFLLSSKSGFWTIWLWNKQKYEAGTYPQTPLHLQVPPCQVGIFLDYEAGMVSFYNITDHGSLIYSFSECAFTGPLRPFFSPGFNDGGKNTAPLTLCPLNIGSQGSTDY

binding (His-MICALL2 (human))	binding [1]	Substance
binds		Flag-TRIM21 (from UniProt P19474 1-475)
	binds	Tripartite motif-containing protein 21 (TRIM21), endogenous (from UniProt P19474 1-475)

— article PMC9615392
